The values below are quoted from earlier work in patent US7955620B2, “Stable oral composition” (Sun Pharmaceutical Industries Limited, priority 2003, dated 2011).

Molecules are shown by their SMILES.

For the data set the following is noted: 75% RH and 40° C., alone or in combination with various excipients.

`Clc1ccc2c(c1)CCc1cccnc1C2=C1CCNCC1` [Desloratadine, 8-chloro-6,11-dihydro-11-(4-piperidylidene)-5H-benzo[5,6]-cyclohepta[1,2-b]pyridine]: the Discoloration on storage result is listed as “discolor”.
